Values of other authors, collected in patent US20210392935A1, “PREPARATION COMPRISING A PROBIOTIC STRAIN OF THE GENUS BACILLUS MEGATERIUM AND A POLYUNSATURATED FATTY ACID COMPONENT” (Evonik Operations GmbH, priority 2018, published 2021).

Conditions: human breast milk [42]; cited from earlier work

| SMILES | content in human breast milk [pg/mL] |
| --- | --- |
| CC/C=C\C[C@H](O)/C=C/C=C\C=C\C=C\[C@@H](O)[C@@H](O)C/C=C\CCC(=O)O [RvD1, resolvin D1] | ~10.000 |
| CC[C@@H](O)/C=C/C=C\C[C@@H](O)/C=C/C=C/C=C\[C@@H](O)CCCC(=O)O [RvE1, resolvin E1] | ~6.000 |
